PubChem BioAssay (Tox21)
Several values for one entry are separate records, joined by “and”; a condition that tells them apart may be missing. Equal entries are not always repeated. The inconclusive results got no clear call from the source; some entries with a clear call stand among them for comparison. For some assays here: A potency beside an inconclusive call is a rough fit, not a confirmed value. Activity calls are given as the source filed them. Unless noted, calls follow the shape of the full dose curve.

Chains of the proteins cited; added tags and fusions are not shown. Lines headed by an entry give the natural chain unless they say otherwise; changes in a name come on top.
UniProt P14416, whole entry, looked up: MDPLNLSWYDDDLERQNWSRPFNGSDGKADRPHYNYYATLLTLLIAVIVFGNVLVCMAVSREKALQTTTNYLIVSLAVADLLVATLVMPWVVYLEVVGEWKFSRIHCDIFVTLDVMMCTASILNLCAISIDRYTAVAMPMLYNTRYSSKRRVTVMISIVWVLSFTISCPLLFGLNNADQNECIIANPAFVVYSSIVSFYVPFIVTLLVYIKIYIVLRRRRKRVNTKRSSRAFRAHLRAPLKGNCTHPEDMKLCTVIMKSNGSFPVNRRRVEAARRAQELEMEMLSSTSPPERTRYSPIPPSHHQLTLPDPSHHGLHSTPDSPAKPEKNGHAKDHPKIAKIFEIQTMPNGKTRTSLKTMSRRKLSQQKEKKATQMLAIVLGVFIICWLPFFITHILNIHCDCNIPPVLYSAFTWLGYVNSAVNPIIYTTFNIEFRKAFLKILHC
UniProt P28223, whole entry, looked up: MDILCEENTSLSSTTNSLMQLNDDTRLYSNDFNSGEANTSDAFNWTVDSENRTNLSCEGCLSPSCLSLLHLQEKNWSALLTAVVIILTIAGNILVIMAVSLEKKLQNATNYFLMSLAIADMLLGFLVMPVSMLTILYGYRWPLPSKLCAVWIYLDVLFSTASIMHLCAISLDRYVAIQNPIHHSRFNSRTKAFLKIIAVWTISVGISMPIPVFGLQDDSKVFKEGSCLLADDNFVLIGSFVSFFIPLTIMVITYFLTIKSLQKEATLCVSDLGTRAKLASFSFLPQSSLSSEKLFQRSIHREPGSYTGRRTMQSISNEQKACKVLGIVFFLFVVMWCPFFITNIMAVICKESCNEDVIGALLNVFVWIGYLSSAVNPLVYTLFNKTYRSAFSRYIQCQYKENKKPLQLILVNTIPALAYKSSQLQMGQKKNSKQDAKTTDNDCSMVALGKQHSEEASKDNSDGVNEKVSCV
UniProt P11229: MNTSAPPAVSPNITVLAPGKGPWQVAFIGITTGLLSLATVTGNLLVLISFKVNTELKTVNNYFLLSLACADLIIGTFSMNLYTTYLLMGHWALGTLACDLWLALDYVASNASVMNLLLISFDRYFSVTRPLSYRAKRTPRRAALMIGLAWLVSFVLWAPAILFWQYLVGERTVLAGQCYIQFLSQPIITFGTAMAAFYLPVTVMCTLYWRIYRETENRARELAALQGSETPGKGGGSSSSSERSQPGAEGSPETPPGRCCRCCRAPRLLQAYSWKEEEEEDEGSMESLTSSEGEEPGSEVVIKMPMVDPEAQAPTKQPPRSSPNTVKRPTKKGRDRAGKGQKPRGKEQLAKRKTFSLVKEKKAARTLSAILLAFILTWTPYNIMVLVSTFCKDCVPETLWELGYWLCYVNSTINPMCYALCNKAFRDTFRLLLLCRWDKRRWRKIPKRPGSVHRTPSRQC

Assays:
[1] = p53 small molecule agonists, cell-based qHTS assay with human liver microsomes (AID 1963577); conditions: HCT-116 p53RE-bla with human liver microsomes, ratio, 16 h; activation: at 66 µM (top of the series) unless noted; also: potency is read from the fitted curve at half-maximal effect;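 as to activation: p53 response element beta-lactamase reporter cells with liver microsomes plus NADPH; % is scaled to controls: 0 for no effect and ±100 for the full control effect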
How it was run: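 In this qHTS, p53 response-element beta-lactamase cells receive test compound together with a microsome/NADPH activating system (0.5 mg/mL final each) and are incubated 16 h at 37 C before LiveBLAzer fluorescence detection.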

[2] = p53 small molecule agonists, cell-based qHTS assay with rat liver microsomes (AID 1963578); conditions: HCT-116 p53RE-bla, beta-lactamase ratio, 16 h; activation: at 66 µM (top of the series) unless noted; also: potency is read from the fitted curve at half-maximal effect; as to activation: % is scaled to controls: 0 for no effect and ±100 for the full control effect
How it was run: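 Agonist mode in p53RE-bla reporter cells, with compounds co-incubated 16 h at 37 C alongside 0.5 mg/mL rat liver microsomes and 0.5 mg/mL NADPH (final), followed by a 2 h LiveBLAzer detection step.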

[3] = target: Beta-2 adrenergic receptor (Homo sapiens) (UniProt P07550); test: Adrenergic beta2 receptor (ADRB2) small molecule agonists, cell-based qHTS assay (AID 1963593); conditions: CHO-ADRB2 cells, cAMP HTRF, 30 min; activation: at 92.4 µM (top of the series) unless noted; also: potency is read from the fitted curve at half-maximal effect;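 as to activation: CHO cells stably overexpressing human ADRB2; % is scaled to controls: 0 for no effect and ±100 for the full control effect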
How it was run: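 CHO cells stably over-expressing ADRB2 were plated overnight at 37C, then dosed with compounds plus a stimulation mix containing 100uM IBMX and 25uM Ro-20-1724 for 0.5hr at room temperature. cAMP was measured by HTRF competition, 1hr.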

[4] = cAMP Responsive Elements (CRE) small molecule agonists, cell-based qHTS assay (AID 1963590); conditions: CRE-bla HEK293T, beta-lactamase FRET ratio, 3 h; activation: at 92.4 µM (top of the series) unless noted; also: potency is read from the fitted curve at half-maximal effect
How it was run: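 CRE-bla HEK 293T cells, 2,000/well in DMEM with 10% dialyzed FBS and 25 mM HEPES, pre-incubated 18 h at 37 C, then exposed to compound 3 h at 37 C. Beta-lactamase reporter read with LiveBLAzer B/G FRET substrate after 2 h at room temperature.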

[5] = cAMP Responsive Elements (CRE) small molecule antagonists, cell-based qHTS assay (AID 1963591; active = well fitted inhibition curve with a large enough effect in the signal ratio in the repeat runs, not every such curve was filed as active; inconclusive = weak or mixed curves, or effect the other way; the % refers to the signal ratio; also: potency is read from the fitted curve at half-maximal effect); conditions: CRE-bla HEK293T, beta-lactamase FRET ratio; activity change, negative = inhibition: at 92.4 µM (top of the series) unless noted
How it was run: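 CRE-bla HEK293T cells plated 18 h, then given compound plus NKH477 at 0.25 uM final for 3 h at 37C. Beta-lactamase reporter read with LiveBLAzer B/G FRET substrate after 2 h at room temperature.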

[6] = target: D(2) dopamine receptor (Homo sapiens) (UniProt P14416); test: Dopamine D2 receptor (DRD2) small molecule agonists, cell-based qHTS assay (AID 1963594); conditions: HEK293-DRD2 cAMP HTRF, agonist mode, 30 min; activation: at 92.4 µM (top of the series) unless noted; also: potency is read from the fitted curve at half-maximal effect; nearly all actives have a fitted effect of over 35% in size
How it was run: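 HEK293 cells stably expressing DRD2 were cultured 24 h at 37 C, then given Ro20-1724 (0.1 mM final) and compounds for 10 min at room temperature. NKH477 (200nM) was then added for 30 min. cAMP was read by HTRF.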

[7] = target: D(2) dopamine receptor (Homo sapiens) (UniProt P14416); test: Dopamine D2 receptor (DRD2) small molecule antagonists, cell-based qHTS assay (AID 1963595; active = well fitted inhibition curve with a large enough effect in the signal ratio in the repeat runs, with a control signal flat; inconclusive = weak or mixed curves, or effect the other way; the % refers to the signal ratio; also: % is scaled to controls: 0 for no effect and ±100 for the full control effect); conditions: HEK293-DRD2 cAMP HTRF antagonist mode; activity change, negative = inhibition: at 92.4 µM (top of the series) unless noted
How it was run: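 Human DRD2 antagonist qHTS measuring cAMP by HTRF. The cells are exposed to compound for 10 min, then to NKH477 (200 nM) and quinpirole (12 nM) for 30 min at RT, with Ro20-1724 (0.1 mM) present throughout.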

[8] = target: 5-hydroxytryptamine receptor 2A (Homo sapiens) (UniProt P28223); test: 5-hydroxytryptamine receptor 2A (HTR2A) small molecule agonists, cell-based qHTS assay (AID 1963587); also: nearly all actives have a fitted effect of over 30% in size; also: potency is read from the fitted curve at half-maximal effect
How it was run: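 HTR2A-CHO cells, plated 18 h at 37 C/5% CO2, dye-loaded 1 h at 37 C; compounds in DMSO added by pin tool (agonist mode). Intracellular calcium flux read as kinetic fluorescence on FDSS over 2 min at 1 s intervals.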

[9] = p53 small molecule agonists, cell-based qHTS assay with human liver microsomes: qHTS cell viability counter screen (AID 1963579); also: potency is read from the fitted curve at half-maximal effect; nearly all actives have a fitted effect of over 45% in size
How it was run: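 Metabolically activated exposure: compounds, human liver microsomes and NADPH (0.5 mg/mL final apiece) were added to p53RE-bla cells seeded 5 h earlier, left 16 h at 37 C, and then assessed for viability by CellTiter-Glo luminescence.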

[10] = p53 small molecule agonists, cell-based qHTS assay (AID 1963582; active = well fitted activation curve with a large enough effect in the signal ratio in the repeat runs, not every such curve was filed as active; inconclusive = weak or mixed curves; the % refers to the signal ratio; also: potency is read from the fitted curve at half-maximal effect); conditions: HCT-116 p53RE-bla reporter, beta-lactamase FRET ratio, 16 h; activation: at 66 µM (top of the series) unless noted
How it was run: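 p53RE-bla reporter cells, compounds added in DMSO after 5 h plating, incubated 16 h at 37 C. Beta-lactamase read via 2 h room-temperature LiveBLAzer B/G FRET substrate, fluorescence intensity.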

[11] = target: Muscarinic acetylcholine receptor M1 (Homo sapiens) (UniProt P11229); test: Cholinergic receptor muscarinic 1 (CHRM1) small molecule antagonists, cell-based qHTS assay (AID 1963588); also: potency is read from the fitted curve at half-maximal effect; nearly all actives have a fitted effect of over 40% in size
How it was run: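 CHRM1-CHO calcium-flux assay, antagonist mode. Cells were seeded 18 h, dye-loaded 1 h at 37 C and given compound for 5 min at RT, then acetylcholine was added at 50nM. FDSS fluorescence was read 3 min; 15 concentrations, three runs.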

[12] = p53 small molecule agonists, cell-based qHTS assay with rat liver microsomes: qHTS cell viability counter screen (AID 1963580); also: potency is read from the fitted curve at half-maximal effect; nearly all actives have a fitted effect of over 45% in size
How it was run: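 p53RE-bla HCT-116 cells (4,000/well) rested 5 h at 37 C, then given Tox21 compounds in DMSO with rat liver microsomes (0.5 mg/mL final) plus NADPH (0.5 mg/mL final) for 16 h at 37 C. Viability read by CellTiter-Glo luminescence after 30 min at room temperature.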

[13] = p53 small molecule agonists, cell-based qHTS assay: qHTS cell viability counter screen (AID 1963581); also: potency is read from the fitted curve at half-maximal effect; nearly all actives have a fitted effect of over 45% in size
How it was run: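 p53RE-bla HCT-116 cells, compounds added 5 h after plating and incubated 16 h at 37 C. Cytotoxicity measured in the same wells as intracellular ATP by CellTiter-Glo luminescence after 30 min at room temperature.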

[14] = target: 5-hydroxytryptamine receptor 2A (Homo sapiens) (UniProt P28223); test: 5-hydroxytryptamine receptor 2A (HTR2A) small molecule antagonists, cell-based qHTS assay (AID 1963586); also: potency is read from the fitted curve at half-maximal effect; nearly all actives have a fitted effect of over 45% in size
How it was run: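 Antagonist-mode intracellular calcium assay: DOI (4 nM) added after 5 min compound pre-incubation at room temperature to dye-loaded HTR2A-CHO cells. Fluorescence followed for 3 min, sampled every second.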

[15] = target: Beta-2 adrenergic receptor (Homo sapiens) (UniProt P07550); test: Adrenergic beta2 receptor (ADRB2) small molecule antagonists, cell-based qHTS assay (AID 1963592); conditions: CHO-ADRB2 cells, isoproterenol-stimulated cAMP HTRF ratio, 0.5 h; activity change, negative = inhibition: at 92.4 µM (top of the series) unless noted; also: potency is read from the fitted curve at half-maximal effect; nearly all actives have a fitted effect of over 50% in size
How it was run: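 Cells (CHO, stable ADRB2 overexpression) incubated 18-20hr at 37C; compounds added from DMSO; agonist mix (1nM isoproterenol, 100uM IBMX, 25uM Ro-20-1724) added; 0.5hr RT; d2-cAMP and anti-cAMP-cryptate added; 1hr RT; 665/615 nm read.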

CC1(C)C(=O)C(C)(C)C1=O
Potency [1]: inactive | Potency [2]: inactive | activation [3]: inconclusive: -8.92%

Cc1ccc(C=O)cc1C
Potency [1]: inconclusive: 16.2 µM [fluorescent, partial curve] | Potency [2]: inconclusive: 18.2 µM [fluorescent, partial curve] | Potency [4]: inactive | Potency [5]: inactive | Potency [3]: inconclusive: 6.86 µM [inhibitor, full curve, poor fit] | Potency [6]: inconclusive: 0.137 µM [rising, partial curve, poor fit]

CC1=CC=C(C(C)C)CC1
activation [1]: inconclusive: 17.5% | activation [2]: inconclusive: 12.8% | Potency [3]: inactive

CC(=O)OC/C=C(/C)CCC=C(C)C
activation [1]: inconclusive: 18.6% | Potency [2]: inactive | Potency [5]: inactive | Potency [3]: inactive

COc1ccc(OC)cc1
Potency [1]: inconclusive: 37 µM [fluorescent] | Potency [2]: inconclusive: 52.3 µM [rising, partial curve, poor fit] | Potency [3]: inactive | activity change, negative = inhibition [7]: inconclusive: 1.23%

C[C@H]1c2cccc(O)c2C(O)=C2C(=O)[C@]3(O)C(O)=C(C(N)=O)C(=O)[C@@H](N(C)C)[C@@H]3[C@@H](O)[C@@H]21
Potency [1]: inconclusive: 19.9 µM [rising, partial curve] | Potency [2]: inconclusive: 19.9 µM [rising, partial curve] | Potency [8]: inactive | Potency [4]: inconclusive: 18.8 µM [rising, partial curve] | Potency [5]: inconclusive: 29.8 µM | Potency [3]: inactive

CN(C)c1ccc(C2(c3ccc(N(C)C)cc3)OC(=O)c3cc(N(C)C)ccc32)cc1
Potency [1]: inconclusive: 51.2 µM [activator, single point] | Potency [9]: active: 18.2 µM | Potency [10]: inconclusive: 20.4 µM [falling, partial curve] | Potency [8]: inactive | Potency [11]: inconclusive: 47.1 µM [inhibitor, single point] | activation [3]: inconclusive: 5.77%

CCCCCCCOC(=O)c1ccc(O)cc1
Potency [1]: inconclusive: 51.3 µM [falling, partial curve, poor fit] | Potency [9]: active: 36.4 µM and inconclusive: 51.3 µM [cytotoxic, single point] | Potency [12]: inconclusive: 51.4 µM [cytotoxic, single point] and inconclusive: 45.8 µM [cytotoxic, single point] | Potency [13]: inconclusive: 51.4 µM [cytotoxic, single point] and inconclusive: 51.3 µM [cytotoxic, single point] | Potency [10]: inconclusive: 51.4 µM | Potency [14]: inconclusive: 33.4 µM [inhibitor, partial curve, poor fit] | Potency [8]: active: 38.9 µM and inconclusive: 54.9 µM [activator, partial curve, poor fit] | Potency [5]: active: 38.6 µM and active: 45.2 µM | Potency [3]: inconclusive: 0.243 µM [inhibitor, single point]

CNC(=O)Oc1ccc2c(c1)[C@]1(C)CCN(C)[C@@H]1N2C
Potency [1]: inconclusive: 4.58 µM [activator, full curve] and inconclusive: 793 nM [fluorescent, full curve] | Potency [2]: inconclusive: 14.5 µM [fluorescent, partial curve] and inconclusive: 8.9 µM [fluorescent, partial curve] | activation [3]: inconclusive: 34.1% | activity change, negative = inhibition [7]: inconclusive: 2.38%

CCN(CCCc1ccccc1)CCCc1ccccc1
Potency [1]: inconclusive: 19.9 µM [activator, partial curve] | Potency [9]: inconclusive: 2.81 µM [rising, partial curve] | Potency [13]: inconclusive: 12.6 µM [rising, partial curve, poor fit] | Potency [14]: inconclusive: 8.18 µM [inhibitor, partial curve, poor fit] | Potency [4]: inconclusive: 23.7 µM [rising, partial curve] | activity change, negative = inhibition [5]: inconclusive: 14.7% [at 42.4 µM] | Potency [3]: inconclusive: 16.8 µM [inhibitor, single point] | Potency [6]: inconclusive: 13.3 µM [rising, single point] | activity change, negative = inhibition [7]: inconclusive: -27.9% [at 42.5 µM]

CN(C)CCOc1ccc(/C(=C(/CCCl)c2ccccc2)c2ccccc2)cc1
Potency [1]: inconclusive: 42.8 µM [falling, partial curve, poor fit] | Potency [9]: active: 30.3 µM | Potency [12]: inconclusive: 42.8 µM [cytotoxic, single point] | Potency [13]: inconclusive: 38.2 µM [cytotoxic, single point] | Potency [10]: inconclusive: 21.5 µM [falling, partial curve, poor fit] | Potency [14]: inconclusive: 39.4 µM [inhibitor, single point] | Potency [8]: active: 40.9 µM | Potency [4]: inconclusive: 57.2 µM [fluorescent] | Potency [5]: inconclusive: 45.5 µM [rising, partial curve] | Potency [15]: active: 57.2 µM | Potency [3]: inconclusive: 57.2 µM [inhibitor]
